Measurements from article PMC9492413.
These are yes or no findings as the source states them, for the method shown. In cells and extracts the contact can be indirect. Some results given as binding are weak or reduced against the parent protein; the word gives no strength.

Protein sequences, listed by entry. Tags and fused reporters are not part of them.
UniProt Q969H0: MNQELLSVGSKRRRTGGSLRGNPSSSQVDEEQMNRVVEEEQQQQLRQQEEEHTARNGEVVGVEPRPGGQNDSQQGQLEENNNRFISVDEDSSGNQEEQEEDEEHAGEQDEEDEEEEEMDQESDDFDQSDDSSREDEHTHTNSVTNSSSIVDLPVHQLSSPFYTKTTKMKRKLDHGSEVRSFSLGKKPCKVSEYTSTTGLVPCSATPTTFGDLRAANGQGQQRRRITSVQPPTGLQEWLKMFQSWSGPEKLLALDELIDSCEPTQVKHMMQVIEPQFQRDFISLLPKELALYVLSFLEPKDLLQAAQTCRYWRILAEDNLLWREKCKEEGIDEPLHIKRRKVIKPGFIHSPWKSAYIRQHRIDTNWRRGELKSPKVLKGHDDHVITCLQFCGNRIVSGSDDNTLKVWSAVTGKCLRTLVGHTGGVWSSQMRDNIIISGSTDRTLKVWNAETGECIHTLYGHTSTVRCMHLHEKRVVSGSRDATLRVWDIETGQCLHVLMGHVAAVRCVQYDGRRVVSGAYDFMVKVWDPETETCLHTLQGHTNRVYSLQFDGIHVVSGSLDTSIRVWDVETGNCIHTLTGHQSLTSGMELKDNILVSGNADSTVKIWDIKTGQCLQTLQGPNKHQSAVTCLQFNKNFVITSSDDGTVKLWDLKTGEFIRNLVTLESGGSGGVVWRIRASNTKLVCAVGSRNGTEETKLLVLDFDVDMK
UniProt O96019: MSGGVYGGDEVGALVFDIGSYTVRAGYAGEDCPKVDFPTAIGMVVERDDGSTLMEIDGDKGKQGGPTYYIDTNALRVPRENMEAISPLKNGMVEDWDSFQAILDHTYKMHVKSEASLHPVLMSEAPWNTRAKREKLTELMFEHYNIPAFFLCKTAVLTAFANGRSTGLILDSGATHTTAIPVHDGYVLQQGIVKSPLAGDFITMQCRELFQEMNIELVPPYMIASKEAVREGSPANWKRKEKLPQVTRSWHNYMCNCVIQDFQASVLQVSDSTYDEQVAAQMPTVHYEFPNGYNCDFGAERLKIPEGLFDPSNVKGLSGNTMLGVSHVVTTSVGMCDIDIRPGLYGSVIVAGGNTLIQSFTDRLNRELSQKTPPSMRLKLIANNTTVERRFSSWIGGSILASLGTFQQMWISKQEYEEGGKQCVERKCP

How the values were obtained:
[1] = target: Flag-tagged FBXW7 (F-box and WD repeat domain-containing 7) (UniProt Q969H0); assay: co-IP; MHCC-97H and Huh7 cells; NP-40 lysis buffer extracts incubated with anti-FBXW7 or anti-ACTL6A antibody at 4°C overnight, protein A/G beads 4 h at 4°C, Western blot
[2] = target: Actin-like 6A (ACTL6A) (human (endogenous in MHCC-97H and Huh7)) (UniProt O96019); assay: as above

| Substance | binding [1] | binding [2] |
| --- | --- | --- |
| Actin-like 6A (ACTL6A) (from UniProt O96019 1-429) | binds |  |
| Flag-tagged FBXW7 (F-box and WD repeat domain-containing 7) (from UniProt Q969H0 1-707) |  | binds |
